Protein sequences, listed by entry. Tags and fused reporters are not part of them. Residues count along the entry.
UniProt P12931, whole entry: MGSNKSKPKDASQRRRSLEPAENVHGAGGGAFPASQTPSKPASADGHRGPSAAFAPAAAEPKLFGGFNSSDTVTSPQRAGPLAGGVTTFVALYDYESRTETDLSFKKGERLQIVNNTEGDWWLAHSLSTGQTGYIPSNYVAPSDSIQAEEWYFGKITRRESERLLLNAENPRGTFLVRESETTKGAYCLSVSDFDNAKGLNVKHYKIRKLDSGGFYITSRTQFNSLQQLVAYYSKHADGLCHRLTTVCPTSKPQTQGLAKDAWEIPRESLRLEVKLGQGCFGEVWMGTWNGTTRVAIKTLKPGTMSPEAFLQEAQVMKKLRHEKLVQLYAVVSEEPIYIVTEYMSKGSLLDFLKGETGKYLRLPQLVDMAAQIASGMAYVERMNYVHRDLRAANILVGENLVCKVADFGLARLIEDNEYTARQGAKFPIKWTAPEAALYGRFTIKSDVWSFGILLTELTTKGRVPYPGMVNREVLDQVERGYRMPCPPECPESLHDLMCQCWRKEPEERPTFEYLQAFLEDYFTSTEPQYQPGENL
UniProt P41240, whole entry: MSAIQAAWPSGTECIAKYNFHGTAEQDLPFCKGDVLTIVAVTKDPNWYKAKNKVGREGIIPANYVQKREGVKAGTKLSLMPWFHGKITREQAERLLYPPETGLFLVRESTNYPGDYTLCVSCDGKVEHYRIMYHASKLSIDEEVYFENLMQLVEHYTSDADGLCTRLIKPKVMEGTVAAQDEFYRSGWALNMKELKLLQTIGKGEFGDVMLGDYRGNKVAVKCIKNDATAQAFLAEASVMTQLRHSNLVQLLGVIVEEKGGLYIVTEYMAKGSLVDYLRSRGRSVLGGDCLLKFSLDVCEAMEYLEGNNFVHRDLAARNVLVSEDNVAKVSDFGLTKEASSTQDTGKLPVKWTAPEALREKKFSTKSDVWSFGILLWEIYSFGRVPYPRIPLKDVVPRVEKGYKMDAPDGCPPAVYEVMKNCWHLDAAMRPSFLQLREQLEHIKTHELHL
UniProt P11362, 22-822 limits assumed: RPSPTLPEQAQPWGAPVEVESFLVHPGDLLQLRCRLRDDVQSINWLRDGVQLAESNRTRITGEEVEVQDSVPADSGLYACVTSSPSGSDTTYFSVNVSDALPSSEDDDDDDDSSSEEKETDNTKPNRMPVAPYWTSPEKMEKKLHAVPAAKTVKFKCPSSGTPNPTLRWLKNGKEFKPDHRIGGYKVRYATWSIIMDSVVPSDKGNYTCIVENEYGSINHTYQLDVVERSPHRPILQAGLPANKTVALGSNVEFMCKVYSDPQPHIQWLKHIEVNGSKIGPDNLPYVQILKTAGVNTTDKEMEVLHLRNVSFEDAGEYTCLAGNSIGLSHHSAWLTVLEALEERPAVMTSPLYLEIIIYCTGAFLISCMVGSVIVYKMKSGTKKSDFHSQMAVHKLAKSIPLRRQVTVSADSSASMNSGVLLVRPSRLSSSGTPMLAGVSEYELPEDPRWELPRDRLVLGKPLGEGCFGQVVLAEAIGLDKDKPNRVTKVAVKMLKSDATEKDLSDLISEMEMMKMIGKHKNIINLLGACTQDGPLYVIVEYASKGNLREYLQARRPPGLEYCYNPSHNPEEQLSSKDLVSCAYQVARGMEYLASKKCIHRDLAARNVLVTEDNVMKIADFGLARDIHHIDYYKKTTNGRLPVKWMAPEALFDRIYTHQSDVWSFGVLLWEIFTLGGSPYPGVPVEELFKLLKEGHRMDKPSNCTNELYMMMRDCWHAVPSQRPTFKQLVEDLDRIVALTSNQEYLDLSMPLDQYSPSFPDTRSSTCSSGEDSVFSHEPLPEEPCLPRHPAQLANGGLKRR

According to patent US20060004197A1, “Sulfonamide-based compounds as protein tyrosine kinase inhibitors” (priority 2004, published 2006):

Assays:
[1] = target: Recombinant human Src (Homo sapiens, UniProt P12931); assay: Src tyrosine kinase activity, poly E4Y / 32P-ATP phosphorylation assay; details: read-out: IC50 (μM) Src, Formula IV compounds
Experimental: Recombinant human Src was expressed using the baculovirus-insect cell system and purified as published (Budde et al., 1993 and 2000). Recombinant Csk and the FGF receptor (FGFr) were expressed as […] fusion proteins using the pGEX expression vector and E. coli, and purified as described (Sun & Budde, 1995).
The tyrosine kinase activity of Src, Csk and FGFr was determined using poly E4Y and ^32P-ATP. Briefly, enzymes were assayed in a reaction mixture consisting of 0.15 M EPPS-NaOH (pH 8.0) with 6 mM MgCl2, 0.2 mM γ^32P-ATP (0.2-0.4 mCi/μmol), 10% glycerol, 0.1% Triton X-100, and poly E4Y. Poly E4Y is a synthetic peptide whose phosphorylation is measured in this assay by the addition of the radioactively labeled phosphate from the ATP (Budde et al., 1995). For screening assays, 50 μg/ml poly E4Y was used, and for Ki determinations variable concentrations (0, 20, 30, 75, and 150 μg/ml) of poly E4Y were used. When ATP was varied (0, 50, 100 and 250 μM), poly E4Y was kept constant at 150 μg/ml. […]

[2] = target: Recombinant Csk (Homo sapiens, UniProt P41240); assay: Csk tyrosine kinase activity, poly E4Y / 32P-ATP phosphorylation assay; details: Formula IV compounds
Experimental: (§1) The tyrosine kinase activity of Src, Csk and FGFr was determined using poly E4Y and ^32P-ATP. Briefly, enzymes were assayed in a reaction mixture consisting of 0.15 M EPPS-NaOH (pH 8.0) with 6 mM MgCl2, 0.2 mM γ^32P-ATP (0.2-0.4 mCi/μmol), 10% glycerol, 0.1% Triton X-100, and poly E4Y. Poly E4Y is a synthetic peptide whose phosphorylation is measured in this assay by the addition of the radioactively labeled phosphate from the ATP (Budde et al., 1995). For screening assays, 50 μg/ml poly E4Y was used, and for Ki determinations variable concentrations (0, 20, 30, 75, and 150 μg/ml) of poly E4Y were used. When ATP was varied (0, 50, 100 and 250 μM), poly E4Y was kept constant at 150 μg/ml.

[3] = target: FGF receptor (FGFr) (UniProt P11362); assay: FGFr tyrosine kinase activity, poly E4Y / 32P-ATP phosphorylation assay; details: read-out: IC50 (μM) FGFr, Formula IV compounds
Experimental: as §1

`CCOP(=O)(OCC)Oc1cc(Oc2ccc(OC)cc2)ccc1NS(=O)(=O)c1ccc(C)cc1` was tested, and the IC50 [1] was 65 µM, the “IC50 (μM) Csk” value [2] was “NI (NI = no inhibition at 100 μg/mL)” and the IC50 [3] was 109 µM.

The match of structure and compound is tentative.
